Binding data for 4 substances are collected here from article PMC5799368.

Chains of the proteins cited; added tags and fusions are not shown. Lines headed by an entry give the natural chain unless they say otherwise; changes in a name come on top.
UniProt P10275: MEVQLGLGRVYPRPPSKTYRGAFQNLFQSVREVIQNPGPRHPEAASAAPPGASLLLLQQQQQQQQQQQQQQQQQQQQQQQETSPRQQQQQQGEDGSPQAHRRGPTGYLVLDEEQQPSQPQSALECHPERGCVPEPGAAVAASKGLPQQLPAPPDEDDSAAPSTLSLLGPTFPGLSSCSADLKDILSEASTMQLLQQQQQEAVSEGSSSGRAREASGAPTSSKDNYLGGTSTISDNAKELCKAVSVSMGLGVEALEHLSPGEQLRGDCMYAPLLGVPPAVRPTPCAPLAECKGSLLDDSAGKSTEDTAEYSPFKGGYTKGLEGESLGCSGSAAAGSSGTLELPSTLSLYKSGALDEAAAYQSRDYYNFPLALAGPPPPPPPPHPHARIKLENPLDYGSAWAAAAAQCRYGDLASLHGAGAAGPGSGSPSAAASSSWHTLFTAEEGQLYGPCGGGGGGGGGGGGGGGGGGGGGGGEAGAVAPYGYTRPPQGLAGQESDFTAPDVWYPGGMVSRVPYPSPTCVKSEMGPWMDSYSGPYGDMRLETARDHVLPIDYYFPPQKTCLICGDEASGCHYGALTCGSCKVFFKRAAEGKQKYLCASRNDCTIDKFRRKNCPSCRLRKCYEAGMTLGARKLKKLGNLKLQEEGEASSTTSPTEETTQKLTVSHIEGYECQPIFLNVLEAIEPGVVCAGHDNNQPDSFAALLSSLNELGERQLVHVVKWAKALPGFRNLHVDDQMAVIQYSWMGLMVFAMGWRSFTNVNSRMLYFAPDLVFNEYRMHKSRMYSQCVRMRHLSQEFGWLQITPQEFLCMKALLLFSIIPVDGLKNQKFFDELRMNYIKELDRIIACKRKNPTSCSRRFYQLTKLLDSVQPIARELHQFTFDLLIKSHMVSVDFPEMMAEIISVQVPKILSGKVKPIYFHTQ
UniProt Q00987: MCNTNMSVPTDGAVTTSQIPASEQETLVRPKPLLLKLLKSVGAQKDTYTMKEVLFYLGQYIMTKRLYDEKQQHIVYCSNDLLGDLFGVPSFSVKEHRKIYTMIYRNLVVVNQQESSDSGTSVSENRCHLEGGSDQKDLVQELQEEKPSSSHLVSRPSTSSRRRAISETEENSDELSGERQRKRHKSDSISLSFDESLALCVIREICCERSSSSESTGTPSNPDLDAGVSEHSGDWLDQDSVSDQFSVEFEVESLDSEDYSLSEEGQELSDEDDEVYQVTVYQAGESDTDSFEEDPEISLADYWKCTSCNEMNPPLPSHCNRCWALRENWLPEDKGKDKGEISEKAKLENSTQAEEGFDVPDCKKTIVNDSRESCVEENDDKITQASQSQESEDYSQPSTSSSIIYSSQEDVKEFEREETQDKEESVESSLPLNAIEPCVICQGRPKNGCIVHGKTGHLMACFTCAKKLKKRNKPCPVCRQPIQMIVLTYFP
UniProt Q99496: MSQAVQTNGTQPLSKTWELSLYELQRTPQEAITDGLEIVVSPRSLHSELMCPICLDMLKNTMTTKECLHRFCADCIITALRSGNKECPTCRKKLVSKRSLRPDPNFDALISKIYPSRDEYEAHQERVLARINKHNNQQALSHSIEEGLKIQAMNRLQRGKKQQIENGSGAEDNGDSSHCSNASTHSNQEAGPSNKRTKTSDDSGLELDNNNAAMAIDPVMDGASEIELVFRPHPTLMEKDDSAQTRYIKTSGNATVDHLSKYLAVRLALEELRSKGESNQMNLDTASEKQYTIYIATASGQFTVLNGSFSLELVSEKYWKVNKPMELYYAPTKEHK

Assay [1] addresses Halo-NTD (AR N-terminal domain) (UniProt P10275). In words: pull-down; lysates of 293T cells transfected with Halo-AR constructs or empty vector; halo-tag magnetic beads, immunoblot. A general note: Immunoblotting shows a protein as a band on a membrane.
The target of assay [2] is GST-MDM2 fusion protein (UniProt Q00987). Briefly: pull-down; competition: purified AR-NTD and MDM2 incubated with purified BMI1∆RING (0 or 2 µg) at 4 °C for 12 h, MDM2 pull-down, immunoblot; both purified.
Assay [3] has as its target T1, GST fusion protein containing full-length mBMI1 (mouse) (UniProt P25916).
T1 sequence: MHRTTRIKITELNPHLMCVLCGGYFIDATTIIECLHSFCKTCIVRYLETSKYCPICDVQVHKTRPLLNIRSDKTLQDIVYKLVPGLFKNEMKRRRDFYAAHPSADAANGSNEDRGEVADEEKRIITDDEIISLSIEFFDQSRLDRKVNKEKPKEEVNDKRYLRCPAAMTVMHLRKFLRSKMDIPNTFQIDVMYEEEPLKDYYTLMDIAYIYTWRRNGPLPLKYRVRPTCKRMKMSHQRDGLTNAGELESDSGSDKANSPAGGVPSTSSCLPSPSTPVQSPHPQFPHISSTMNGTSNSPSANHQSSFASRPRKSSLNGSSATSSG
Briefly: pull-down; His-AR-NTD incubated at 4 °C for 12 h with GST fusion proteins, GST pull-down, immunoblot with anti-GST and anti-AR; both purified.

Another assay deals with GST-RING1B (UniProt Q99496). Described as above.
Assay [4] concerns the target GST-MDM2 fusion protein (UniProt Q00987). The description is as above.
For assay [5] the target is unchanged. Briefly: pull-down; in vitro competitive binding: purified AR-NTD and GST-MDM2 incubated with purified His-BMI1 (0, 2 or 10 µg) at 4 °C for 12 h, GST pull-down, immunoblot; both purified.
In assay [6] the target is BMI1 (B lymphoma Mo-MLV insertion region 1) (human (endogenous in C4-2, 22Rv1, LuCaP PDX tissue, 293T)) (UniProt P35226). In words: co-IP; lysates of 293T cells transfected with Halo-AR constructs or empty vector; IP with anti-BMI1 antibody, immunoblot.
Assay [7] addresses Purified 6×His AR-NTD protein (UniProt P10275). In words: pull-down; in vitro competitive binding: purified AR-NTD and GST-MDM2 incubated with purified His-BMI1 (0, 2 or 10 µg) at 4 °C for 12 h, GST pull-down, immunoblot; both purified.

Results are given in words; binding and its absence hold for the method and conditions named. For some assays here: Binding calls can cover weak binding; strength is not graded here. For some assays here: Sequences can lack the tags named with a protein. For some assays here: Binding seen in cells or lysates may run through a third protein.

In the case of “BMI1 (B lymphoma Mo-MLV insertion region 1) (from UniProt P35226 1-326)”, the binding result in assay [1] is “binds”.
For “Purified 6×His AR-NTD protein (from UniProt P10275) (domain or fragment)”, the binding entry with GST-MDM2 fusion protein [2] was “binds”; in assay [3], “binds”; in the assay with GST-RING1B, “no binding”; with GST-MDM2 fusion protein [4], “binds”; with GST-MDM2 fusion protein [5], “binds”.
Consider “Halo-NTD (AR N-terminal domain) (from UniProt P10275) (domain or fragment)”, for which the binding entry in assay [6] is listed as “binds”.
For “Purified His-BMI1 (from UniProt P35226 1-326)”, in assay [7], the binding result is “binds”.
